Source: PubChem BioAssay (Tox21)
Values joined by “and” are separate entries in the source; they are usually repeats but may differ in a detail not shown here. Identical values can stand only once. Inconclusive means that the source gave no clear call. Such entries were picked first, then a sample of the others. For some assays here: Potencies beside an inconclusive call are fits to weak or partial responses and may not hold up. More than one record can exist for a structure, and the calls need not agree. Active and inactive are the calls of the source. Unless noted, calls come from the whole dose curve.

Protein sequences, listed by entry. Tags and fused reporters are not part of them. Lines headed by an entry give the natural chain unless they say otherwise; changes in a name come on top.
UniProt P28223, whole entry, looked up: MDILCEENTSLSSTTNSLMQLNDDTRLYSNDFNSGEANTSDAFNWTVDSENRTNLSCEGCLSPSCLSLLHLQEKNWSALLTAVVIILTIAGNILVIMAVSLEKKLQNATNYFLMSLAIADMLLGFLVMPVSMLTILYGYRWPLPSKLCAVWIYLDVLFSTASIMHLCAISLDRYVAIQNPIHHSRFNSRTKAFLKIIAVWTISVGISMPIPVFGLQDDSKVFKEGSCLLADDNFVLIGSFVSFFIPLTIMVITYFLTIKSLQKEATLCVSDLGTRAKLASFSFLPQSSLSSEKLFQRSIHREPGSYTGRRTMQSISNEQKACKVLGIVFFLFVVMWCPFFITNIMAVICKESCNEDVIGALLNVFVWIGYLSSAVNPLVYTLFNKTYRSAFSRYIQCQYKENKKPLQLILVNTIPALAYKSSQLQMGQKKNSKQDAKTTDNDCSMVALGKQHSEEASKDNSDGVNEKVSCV
UniProt P14416, whole entry, looked up: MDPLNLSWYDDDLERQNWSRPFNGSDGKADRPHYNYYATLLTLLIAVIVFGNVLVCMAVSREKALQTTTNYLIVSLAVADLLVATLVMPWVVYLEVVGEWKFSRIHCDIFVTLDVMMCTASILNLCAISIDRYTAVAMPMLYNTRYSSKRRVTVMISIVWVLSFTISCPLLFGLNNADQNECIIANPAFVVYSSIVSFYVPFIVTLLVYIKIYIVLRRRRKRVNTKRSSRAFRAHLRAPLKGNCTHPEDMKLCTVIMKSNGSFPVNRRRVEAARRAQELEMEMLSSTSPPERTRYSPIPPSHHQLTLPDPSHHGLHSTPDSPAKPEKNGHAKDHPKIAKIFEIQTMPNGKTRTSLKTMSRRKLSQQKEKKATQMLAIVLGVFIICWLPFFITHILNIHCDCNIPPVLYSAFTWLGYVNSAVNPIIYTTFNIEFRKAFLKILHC
UniProt P11229: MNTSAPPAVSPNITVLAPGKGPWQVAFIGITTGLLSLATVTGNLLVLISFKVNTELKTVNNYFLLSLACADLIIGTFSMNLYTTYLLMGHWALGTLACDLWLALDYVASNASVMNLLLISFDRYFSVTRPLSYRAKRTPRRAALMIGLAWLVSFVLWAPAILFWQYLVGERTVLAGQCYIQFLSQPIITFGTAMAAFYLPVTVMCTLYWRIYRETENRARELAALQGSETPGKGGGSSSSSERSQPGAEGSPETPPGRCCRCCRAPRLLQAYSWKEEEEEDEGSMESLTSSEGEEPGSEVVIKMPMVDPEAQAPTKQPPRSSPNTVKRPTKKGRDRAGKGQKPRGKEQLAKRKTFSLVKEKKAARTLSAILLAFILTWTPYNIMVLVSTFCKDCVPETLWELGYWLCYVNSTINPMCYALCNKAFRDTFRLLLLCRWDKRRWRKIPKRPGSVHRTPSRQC

What was measured:
[1] = p53 small molecule agonists, cell-based qHTS assay with human liver microsomes (AID 1963577); settings: HCT-116 p53RE-bla with human liver microsomes, ratio, 16 h; activation: at 66 µM (top of the series) unless noted; note: potency is the fitted concentration of half-maximal effect;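 for activation: p53 response element beta-lactamase reporter cells with liver microsomes plus NADPH; % is set by controls: 0 for no effect and ±100 for the full control effect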
How it was run: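 Metabolically competent format: test substances, human liver microsomes and NADPH (both 0.5 mg/mL final) incubated with p53RE-bla cells 16 h at 37 C. Beta-lactamase reporter signal then quantified by fluorescence.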

[2] = p53 small molecule agonists, cell-based qHTS assay (AID 1963582; active = well fitted activation curve with a large enough effect in the signal ratio in the repeat runs, not every such curve was filed as active; inconclusive = weak or mixed curves; the % refers to the signal ratio; note: potency is the fitted concentration of half-maximal effect; for activation: % is set by controls: 0 for no effect and ±100 for the full control effect); settings: HCT-116 p53RE-bla reporter, beta-lactamase FRET ratio, 16 h; activation: at 66 µM (top of the series) unless noted
How it was run: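 p53RE-bla reporter cells, compounds added in DMSO after 5 h plating, incubated 16 h at 37 C. Beta-lactamase read via 2 h room-temperature LiveBLAzer B/G FRET substrate, fluorescence intensity.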

[3] = cAMP Responsive Elements (CRE) small molecule antagonists, cell-based qHTS assay (AID 1963591; active = well fitted inhibition curve with a large enough effect in the signal ratio in the repeat runs, not every such curve was filed as active; inconclusive = weak or mixed curves, or effect the other way; the % refers to the signal ratio; note: potency is the fitted concentration of half-maximal effect); settings: CRE-bla HEK293T, beta-lactamase FRET ratio; activity change, negative = inhibition: at 92.4 µM (top of the series) unless noted
How it was run: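 CRE-bla HEK293T cells plated 18 h, then given compound plus NKH477 at 0.25 uM final for 3 h at 37C. Beta-lactamase reporter read with LiveBLAzer B/G FRET substrate after 2 h at room temperature.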

[4] = target: Beta-2 adrenergic receptor (Homo sapiens) (UniProt P07550); assay: Adrenergic beta2 receptor (ADRB2) small molecule antagonists, cell-based qHTS assay (AID 1963592); settings: CHO-ADRB2 cells, isoproterenol-stimulated cAMP HTRF ratio, 0.5 h; activity change, negative = inhibition: at 92.4 µM (top of the series) unless noted; note: % is set by controls: 0 for no effect and ±100 for the full control effect; nearly all actives have a fitted effect of over 50% in size
How it was run: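 Cells (CHO, stable ADRB2 overexpression) incubated 18-20hr at 37C; compounds added from DMSO; agonist mix (1nM isoproterenol, 100uM IBMX, 25uM Ro-20-1724) added; 0.5hr RT; d2-cAMP and anti-cAMP-cryptate added; 1hr RT; 665/615 nm read.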

[5] = target: 5-hydroxytryptamine receptor 2A (Homo sapiens) (UniProt P28223); assay: 5-hydroxytryptamine receptor 2A (HTR2A) small molecule agonists, cell-based qHTS assay (AID 1963587); note: nearly all actives have a fitted effect of over 30% in size; note: potency is the fitted concentration of half-maximal effect; for activation: % is set by controls: 0 for no effect and ±100 for the full control effect
How it was run: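 HTR2A-CHO cells, plated 18 h at 37 C/5% CO2, dye-loaded 1 h at 37 C; compounds in DMSO added by pin tool (agonist mode). Intracellular calcium flux read as kinetic fluorescence on FDSS over 2 min at 1 s intervals.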

[6] = cAMP Responsive Elements (CRE) small molecule agonists, cell-based qHTS assay (AID 1963590); settings: CRE-bla HEK293T, beta-lactamase FRET ratio, 3 h; activation: at 92.4 µM (top of the series) unless noted; note: potency is the fitted concentration of half-maximal effect
How it was run: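 CRE-bla HEK 293T cells, 2,000/well in DMEM with 10% dialyzed FBS and 25 mM HEPES, pre-incubated 18 h at 37 C, then exposed to compound 3 h at 37 C. Beta-lactamase reporter read with LiveBLAzer B/G FRET substrate after 2 h at room temperature.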

[7] = target: Beta-2 adrenergic receptor (Homo sapiens) (UniProt P07550); assay: Adrenergic beta2 receptor (ADRB2) small molecule agonists, cell-based qHTS assay (AID 1963593); settings: CHO-ADRB2 cells, cAMP HTRF, 30 min; note: potency is the fitted concentration of half-maximal effect;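 for activation: CHO cells stably overexpressing human ADRB2; % is set by controls: 0 for no effect and ±100 for the full control effect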
How it was run: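 CHO cells stably over-expressing ADRB2 were plated overnight at 37C, then dosed with compounds plus a stimulation mix containing 100uM IBMX and 25uM Ro-20-1724 for 0.5hr at room temperature. cAMP was measured by HTRF competition, 1hr.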

[8] = target: 5-hydroxytryptamine receptor 2A (Homo sapiens) (UniProt P28223); assay: 5-hydroxytryptamine receptor 2A (HTR2A) small molecule antagonists, cell-based qHTS assay (AID 1963586); note: nearly all actives have a fitted effect of over 45% in size; note: potency is the fitted concentration of half-maximal effect
How it was run: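 Antagonist-mode intracellular calcium assay: DOI (4 nM) added after 5 min compound pre-incubation at room temperature to dye-loaded HTR2A-CHO cells. Fluorescence followed for 3 min, sampled every second.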

[9] = target: D(2) dopamine receptor (Homo sapiens) (UniProt P14416); assay: Dopamine D2 receptor (DRD2) small molecule antagonists, cell-based qHTS assay (AID 1963595; active = well fitted inhibition curve with a large enough effect in the signal ratio in the repeat runs, with a control signal flat; inconclusive = weak or mixed curves, or effect the other way; the % refers to the signal ratio; note: potency is the fitted concentration of half-maximal effect); settings: HEK293-DRD2 cAMP HTRF antagonist mode; activity change, negative = inhibition: at 92.4 µM (top of the series) unless noted
How it was run: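 HEK293 cells stably expressing DRD2 were preincubated with 0.1 mM Ro20-1724, then with compound for 10 min at room temperature. Cells were stimulated with 200 nM NKH477 plus 12 nM quinpirole for 30 min, and cAMP was read by HTRF.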

[10] = target: D(2) dopamine receptor (Homo sapiens) (UniProt P14416); assay: Dopamine D2 receptor (DRD2) small molecule agonists, cell-based qHTS assay (AID 1963594); settings: HEK293-DRD2 cAMP HTRF, agonist mode, 30 min; activation: at 92.4 µM (top of the series) unless noted; note: potency is the fitted concentration of half-maximal effect; nearly all actives have a fitted effect of over 35% in size
How it was run: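 HEK293 cells stably expressing DRD2 were cultured 24 h at 37 C, then given Ro20-1724 (0.1 mM final) and compounds for 10 min at room temperature. NKH477 (200nM) was then added for 30 min. cAMP was read by HTRF.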

[11] = target: Muscarinic acetylcholine receptor M1 (Homo sapiens) (UniProt P11229); assay: Cholinergic receptor muscarinic 1 (CHRM1) small molecule antagonists, cell-based qHTS assay (AID 1963588); note: nearly all actives have a fitted effect of over 40% in size; note: potency is the fitted concentration of half-maximal effect
How it was run: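 CHRM1-CHO calcium-flux assay, antagonist mode. Cells were seeded 18 h, dye-loaded 1 h at 37 C and given compound for 5 min at RT, then acetylcholine was added at 50nM. FDSS fluorescence was read 3 min; 15 concentrations, three runs.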

[12] = activation: at 92.4 µM (top of the series) unless noted

Question: Which Potency [1] does the source give for `NC(=O)n1c(O)c(C(=O)c2cccs2)c2cc(Cl)ccc21` here?
Answer: The Potency was inconclusive: 7.93 µM [falling, partial curve, poor fit].

Question: What about the activation [2] of the same compound?
Answer: Its activation is inconclusive: 19.3% [at 30.3 µM].

Question: And the Potency [3]?
Answer: The Potency was inconclusive: 26.6 µM.

Question: And the Potency [4]?
Answer: Its Potency is “inactive”.

Question: With `Cc1cccc(C)c1OCC(=O)N[C@@H](Cc1ccccc1)[C@@H](O)C[C@H](Cc1ccccc1)NC(=O)[C@H](C(C)C)N1CCCNC1=O` as the compound, how does the Potency [1] read?
Answer: Its Potency is “inactive”.

Question: And the Potency [2]?
Answer: The Potency was inconclusive: 8.9 µM [rising, partial curve].

Question: And the Potency [5]?
Answer: Its Potency is inconclusive: 10.7 µM [activator, partial curve, poor fit].

Question: And the Potency [6]?
Answer: Its Potency is inconclusive: 33.5 µM.

Question: And the Potency [3]?
Answer: Its Potency is inconclusive: 29.8 µM [rising, partial curve, poor fit].

Question: What about the Potency [7, 12] of the same compound?
Answer: Its Potency is inconclusive: 33.5 µM [inhibitor, single point].

Question: With `Nc1ccc(Nc2ccccc2)cc1` as the compound, how does the Potency [1] read?
Answer: Its Potency is inconclusive: 9.13 µM [rising, full curve].

Question: What about the Potency [2] of the same compound?
Answer: Its Potency is inconclusive: 40.3 µM [falling, single point] and inconclusive: 51.3 µM [falling, single point].

Question: And the Potency [8]?
Answer: Its Potency is inconclusive: 14.9 µM [inhibitor, partial curve, poor fit] and active: 3.75 µM.

Question: What about the Potency [5] of the same compound?
Answer: Its Potency is active: 7.68 µM and active: 24.6 µM and active: 3.89 µM.

Question: What about the Potency [6] of the same compound?
Answer: Its Potency is inconclusive: 27.3 µM.

Question: And the Potency [3]?
Answer: The Potency was inconclusive: 34.4 µM [activator, partial curve].

Question: What about the Potency [9] of the same compound?
Answer: The Potency was inconclusive: 67.8 µM [cytotoxic] and inconclusive: 48.6 µM [cytotoxic, partial curve] and inconclusive: 10.9 µM [cytotoxic, partial curve].

Question: Which results are given for `O=C(O)C1(C(=O)Nc2ccc(Cl)cc2Cl)CC1`?
Answer: Potency [1]: inconclusive: 5.13 µM [fluorescent, full curve]; Potency [2]: inconclusive: 1.15 µM [fluorescent, full curve]; Potency [8]: active: 33400 nM; Potency [6]: inconclusive: 27.3 µM [rising, partial curve]; Potency [3]: inconclusive: 61.1 µM [fluorescent, partial curve]; Potency [7, 12]: inconclusive: 30.6 µM [inhibitor, partial curve, poor fit]

Question: What does the source list for `COc1ccc(S(=O)(=O)N2C(=O)[C@@](c3ccccc3OC)(N3C[C@H](O)C[C@H]3C(=O)N(C)C)c3cc(Cl)ccc32)c(OC)c1`?
Answer: Potency [1]: inconclusive: 40.8 µM [rising, partial curve, poor fit]; Potency [2]: inconclusive: 28.9 µM [rising, partial curve]; Potency [6]: inconclusive: 68.6 µM; Potency [3]: inconclusive: 68.6 µM [fluorescent]; activation [7, 12]: inconclusive: -52.6%; Potency [10]: inconclusive: 0.611 µM [rising, full curve, poor fit]

Question: For `COc1ccccc1N1CCN(CC(O)COc2cc(OC)c(OC)c(OC)c2)CC1` (stereo unspecified), which Potency [1] is on record?
Answer: The Potency was “inactive”.

Question: And the Potency [2]?
Answer: The Potency was “inactive”.

Question: What about the Potency [7, 12] of the same compound?
Answer: Its Potency is inconclusive: 10.6 µM [inhibitor, single point].

Question: With `CC(CN1CC(=O)NC(=O)C1)N1CC(=O)NC(=O)C1` (stereo unspecified) as the compound, how does the Potency [1] read?
Answer: The Potency was “inactive”.

Question: What about the Potency [2] of the same compound?
Answer: The Potency was active: 19.9 µM.

Question: What about the Potency [8] of the same compound?
Answer: The Potency was inconclusive: 326 nM [inhibitor, full curve, poor fit].

Question: What about the Potency [7, 12] of the same compound?
Answer: The Potency was “inactive”.

Question: Which Potency [1] does the source give for `CN(C)C(=O)NC1(c2ccccc2)CCN(CC[C@@]2(c3ccc(F)c(F)c3)CN(C(=O)c3ccccc3)CCO2)CC1` here?
Answer: The Potency was inconclusive: 37.9 µM [rising, partial curve, poor fit].

Question: What about the Potency [2] of the same compound?
Answer: Its Potency is “inactive”.

Question: And the Potency [8]?
Answer: The Potency was inconclusive: 55.2 nM [inhibitor, full curve, poor fit].

Question: What about the Potency [11] of the same compound?
Answer: The Potency was inconclusive: 39.1 µM [inhibitor, single point].

Question: What about the Potency [6] of the same compound?
Answer: The Potency was inconclusive: 45.1 µM [rising, partial curve, poor fit].

Question: And the Potency [3]?
Answer: Its Potency is inconclusive: 50.6 µM [activator].

Question: What about the Potency [9] of the same compound?
Answer: Its Potency is inconclusive: 63.7 µM [inhibitor, single point].

Question: What does the source list for `C/C=C(\C)C(=O)OC/C=C(\C)CCC=C(C)C`?
Answer: Potency [1]: inactive; Potency [2]: inactive; Potency [5]: inactive; activity change, negative = inhibition [9]: inconclusive: -22.1%

Question: With `CCCOC(=O)CCCCC(=O)OCCC` as the compound, how does the Potency [1] read?
Answer: The Potency was inconclusive: 16.2 µM [fluorescent, partial curve].

Question: What about the Potency [2] of the same compound?
Answer: The Potency was “inactive”.

Question: And the Potency [6]?
Answer: The Potency was “inactive”.

Question: What about the activation [7, 12] of the same compound?
Answer: Its activation is inconclusive: 9.73%.

Question: Which Potency [1] does the source give for `CC(=O)Nc1ccn(C2COC(COC(=O)c3ccccc3)O2)c(=O)n1` (stereo unspecified) here?
Answer: Its Potency is “inactive”.

Question: And the Potency [2]?
Answer: Its Potency is inconclusive: 0.793 µM [falling, full curve].

Question: And the Potency [11]?
Answer: Its Potency is “inactive”.

Question: And the Potency [6]?
Answer: Its Potency is inconclusive: 13.3 µM [rising, partial curve].

Question: And the Potency [3]?
Answer: The Potency was inconclusive: 26.6 µM [fluorescent, partial curve, poor fit].

Question: What about the Potency [7, 12] of the same compound?
Answer: The Potency was inconclusive: 0.237 µM [inhibitor, single point].

Question: With `C[C@H]1C[C@@H]2[C@H]([C@@H](O)C[C@@]3(C)[C@H]2CC[C@]3(O)C(=O)CO)[C@@]2(C)C=CC(=O)C=C12` as the compound, how does the Potency [1] read?
Answer: Its Potency is “inactive”.

Question: What about the Potency [2] of the same compound?
Answer: Its Potency is “inactive”.

Question: What about the Potency [3] of the same compound?
Answer: Its Potency is inconclusive: 54.5 µM [activator, partial curve] and inconclusive: 21.1 µM [activator, partial curve].

Question: What about the activation [7, 12] of the same compound?
Answer: Its activation is inconclusive: 14.8% [at 42.5 µM].

Question: What about the activation ([7]; at 92.4 µM (top of the series)) of the same compound?
Answer: The activation was inactive: -35.5%.

Question: With `CC(O)C(CO)C(C)O` (stereo unspecified) as the compound, how does the Potency [1] read?
Answer: The Potency was “inactive”.

Question: And the Potency [2]?
Answer: The Potency was “inactive”.

Question: And the Potency [8]?
Answer: Its Potency is “inactive”.

Question: What about the Potency [7, 12] of the same compound?
Answer: The Potency was “inactive”.

Question: Which Potency [1] does the source give for `Cc1ccc(S(=O)(=O)NC2CCCCC2)cc1` here?
Answer: Its Potency is “inactive”.

Question: What about the Potency [2] of the same compound?
Answer: The Potency was “inactive”.

Question: And the Potency [8]?
Answer: The Potency was “inactive”.

Question: And the Potency [6]?
Answer: Its Potency is “inactive”.

Question: And the Potency [3]?
Answer: The Potency was “inactive”.
